Data reported in the supplement of paper PMC4604168 (melanoma cell lines).
This is one part of the list. Many values rest on one well or one pass, so single values are uncertain.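 The apoptosis fraction was the count of cleaved-PARP antibody-stained nuclei relative to all DNA-stained nuclei, imaged in 1,536-well plates. Screening doses were set so most cells survived, and baseline and induced cleaved-PARP levels vary greatly across cell lines.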

Tests used:
Assay in all cases: cleaved PARP positive nuclei fraction relative to DMSO control; melanoma cells; higher = more apoptosis
Settings in all cases: library dose: low library concentration; 72 h
CBRC034 = test system: CBRC034 (line from a melanoma biopsy)
COLO792 = test system: COLO792
COLO800 = test system: COLO800
COLO829 = test system: COLO829
G361 = test system: G361
IPC-298 = test system: IPC-298
IST-MEL1 = test system: IST-MEL1
LB2518-MEL = test system: LB2518-MEL
LOXIMVI = test system: LOXIMVI
MEL-HO = test system: MEL-HO

SMILES	cleaved PARP positive nuclei fraction (CBRC034)	cleaved PARP positive nuclei fraction (COLO792)	cleaved PARP positive nuclei fraction (COLO800)	cleaved PARP positive nuclei fraction (COLO829)	cleaved PARP positive nuclei fraction (G361)	cleaved PARP positive nuclei fraction (IPC-298)	cleaved PARP positive nuclei fraction (IST-MEL1)	cleaved PARP positive nuclei fraction (LB2518-MEL)	cleaved PARP positive nuclei fraction (LOXIMVI)	cleaved PARP positive nuclei fraction (MEL-HO)
COc1ccc(C2=N[C@@H](c3ccc(Cl)cc3)[C@@H](c3ccc(Cl)cc3)N2C(=O)N2CCNC(=O)C2)c(OC(C)C)c1 [Nutlin-3] + C[As](C)SC[C@H](NC(=O)CC[C@H](N)C(=O)O)C(=O)NCC(=O)O [Darinaparsin] (first compound 0.1 µM, partner dose 0.4 µM)	129%	25.4%	83.1%	88.9%	58.1%	44.5%	451%	60.5%	89.5%	104%
O=C(/C=C/c1cccnc1)NCCCCC1CCN(C(=O)c2ccccc2)CC1 + C[As](C)SC[C@H](NC(=O)CC[C@H](N)C(=O)O)C(=O)NCC(=O)O [Darinaparsin] (first compound 0.01 µM, partner dose 0.4 µM)	1460%	642%	290%	226%	7300%	392%	95.4%	266%	38.9%	932%
Cn1cnc2c(F)c(Nc3ccc(Br)cc3Cl)c(C(=O)NOCCO)cc21 [selumetinib] + C[C@]12O[C@H](C[C@]1(O)CO)n1c3ccccc3c3c4c(c5c6ccccc6n2c5c31)CNC4=O [Lestaurtinib] (first compound 0.015 µM, partner dose 0.004 µM)	87.9%	60.7%	74.4%	108%	233%	306%	132%	147%	178%	103%
C[C@@H](N)c1ccc(C(=O)Nc2ccnc3[nH]ccc23)cc1 + C[C@]12O[C@H](C[C@]1(O)CO)n1c3ccccc3c3c4c(c5c6ccccc6n2c5c31)CNC4=O [Lestaurtinib] (first compound 0.4 µM, partner dose 0.004 µM)	269%	127%	92.5%	122%	185%	44.5%	175%	42.9%	121%	93.4%
N.N.[Cl][Pt][Cl] [cisplatin] + CC(=O)c1c(C)c2cnc(Nc3ccc(N4CCNCC4)cn3)nc2n(C2CCCC2)c1=O [palbociclib] (first compound 1.6 µM, partner dose 0.04 µM)	82.7%	129%	101%	71.4%	125%	405%	57%	61.6%	20.5%	59.3%
